From patent US8501715B2, “Oxidized lipids and uses thereof in the treatment of inflammatory diseases and disorders” (Vascular Biogenics Ltd., priority 2003, dated 2013)

Tested on: TGF-β
Assay: TGF-β levels in Apo-E KO mice
Format: in vivo, mouse
Settings: End

2,5′-Aldehyde Lecithin Ether [ALLE]
TGF-β (i.p. immunization x4 every 2 weeks (ALLE 150 μg/mouse coupled to PPD; PPD alone)): 12032 ± 2308 pmol/mL | TGF-β (oral 10 μg/mouse L-ALLE+D-ALLE every other day for 5 days): 18010 ± 1373 pmol/mL | TGF-β (oral 1 mg/mouse L-ALLE+D-ALLE every other day for 5 days): 13388 ± 1489 pmol/mL
